Laboratory results reported in patent US20140322233A1.
These are yes or no findings as the source states them, for the method shown. Some binding calls cover weakened binding; strength is not graded here. Each block holds one binder with its values, some of them ahead of it.

Target: T1, GCC array peptides 55, 56 and 57 (sequence spanned: SEQ ID NO:225) (human)
T1 sequence (peptide): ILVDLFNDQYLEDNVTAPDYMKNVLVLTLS
Assay: array of 20-mer GCC peptides on glass slides

binding: binds
B1: mAb Abx-198 (antibody, IgG1, V domains shown)
VH: EVQLLESGGGLVQPGGSLRLSCAASGFTFSSYAMSWVRQAPGKGLDWVSDISGSGGSTYYADSVKGRFTISRDNSKNTLYLQMHSLSAEDTAIYYCAKRRWQGYFDLWGRGTLVTVSS
VL: EIVLTQSPGTLSLSPGERATLSCRARQRVDSRYLAWYQQKPGQAPRLLIYGASSRATGIPDRFSGSGSGTDFTLTISRLEPEDFAVYYCQQYGSSPLTFGGGTKVEIK

binding: binds
B2: mAb 3G1 (antibody, IgG1, V domains shown)
VH: QVQLKESGPGLVAPSQSLSITCTVSGFSLSRNAISWVRQPPGKGLEWLGVIWTGGGTNYNSALKSRLSIRKENSKSQVFLKMNSLQTEDTARYFCARSGYDGFDYWGQGTLVTVSA
VL: QIVLTQSPAIMSASPGEKVTMTCSASSSVNYMHWYQQKSGTSPKRWIYDTSKLASGVPARFSGSGSGTSYSLTITSMEAEDAATYYCQQWSGNPYTFGGGTKLEIK

binding: binds
B3: mAb 8F1 (antibody, IgG1, V domains shown)
VH: QVQLQQPGAELVKPGASVQMSCKASGYIFTGYWMYWVKQRPGQGLEWIGRIHPSDSNTNYNQKFKGKATLTVDKSSSTAYMQLSSLTSEDSAVYYCTHALAYWGQGTLVTVS
VL: DVVLTQTPLTLSITIGQPASISCKSSQSLLYSNGKTYLSWLLQRPGQSPKRLIYLVSQLDSGVPDRFTGSGSGTDFTLKISRVEAEDLGVYYCVQGTHLFTFGSGTKLEIK
